# The list is a part of this screen's results and no random one: it is rich in T/C values a quarter to a half above the control, in often repeated tests (any T/C) and in doses without a T/C. Further doses and runs are listed elsewhere. T/C gives the treated animals as a percentage of the vehicle group. Some entries give survivors of the animals treated and no T/C: the source files T/C as zero there, which appears to mark a toxic dose or a test without result, not a measured value. Some survivor counts are full or nearly so, which does not show that the dose was tolerated: the source hardly ever lists a survival T/C far under the control, and the zero likely stands for such cases as well. Survivors were counted at the toxicity check, usually on the fifth day, unless a day is given; later deaths do not show. Schedules are NCI's codes, taken here to give the interval after Q, in days (D) or hours (H), and the number of doses after X. For survival time, this PubChem deposit counts one and a half times the control or more as active, and values a quarter to a half above the control carry no call in these data; other NCI protocols may use other cut-offs. Marks such as (2×) give the number of equal values in this list. Some T/C values carry the count of animals alive at the toxicity check (mostly the fifth day); without a count, all were alive then. Some entries hold several experiments; the results are listed from low to high.
# System: P388 leukemia ip, CD2F1 mice, survival T/C
# Test: NCI In Vivo Anticancer Drug Screen. Data for tumor model P388 Leukemia (intraperitoneal) in CD2F1 (CDF1) mice
# Settings: T/C endpoint: median survival time, higher T/C = longer survival
# [1] = dose: 200.0 mg/kg/injection, schedule: Q01DX009 (ip), vehicle: saline with Tween-80
# [2] = dose: 200.0 mg/kg/injection, schedule: Q01DX005 (ip), vehicle: Klucel (hydroxypropylcellulose) (HPC)
# [3] = dose: 25.0 mg/kg/injection, schedule: Q01DX005 (ip), vehicle: saline
# [4] = dose: 50.0 mg/kg/injection, schedule: Q01DX005 (ip), vehicle: saline
# [5] = dose: 100.0 mg/kg/injection, schedule: Q01DX005 (ip), vehicle: saline
# [6] = dose: 200.0 mg/kg/injection, schedule: Q01DX005 (ip), vehicle: saline
# [7] = dose: 12.5 mg/kg/injection, schedule: Q01DX005 (ip), vehicle: saline
compound,measurement,setting,value
O=C1c2ccccc2C(=O)c2c(NCCNCCO)ccc(O)c21,T/C,"dose: 2.5 mg/kg/injection, schedule: Q01DX009 (ip), vehicle: acid diluted with saline",131 % of control (2×)
same,T/C,"dose: 5.0 mg/kg/injection, schedule: Q01DX009 (ip), vehicle: acid diluted with saline",131 and 145 % of control
same,T/C,"dose: 10.0 mg/kg/injection, schedule: Q01DX009 (ip), vehicle: acid diluted with saline",138 and 144 % of control
same,T/C,"dose: 12.5 mg/kg/injection, schedule: Q04DX002 (ip), vehicle: other",125 % of control
same,T/C,"dose: 12.5 mg/kg/injection, schedule: Q04DX002 (ip), vehicle: water",129 % of control
same,T/C,"dose: 20.0 mg/kg/injection, schedule: Q01DX009 (ip), vehicle: acid diluted with saline, evaluated on day 35",144 % of control
same,T/C,"dose: 20.0 mg/kg/injection, schedule: Q01DX009 (ip), vehicle: acid diluted with saline, evaluated on day 45",145 % of control
same,T/C,"dose: 20.0 mg/kg/injection, schedule: Q04DX003 (iv), vehicle: saline",130 % of control
same,T/C,"dose: 25.0 mg/kg/injection, schedule: Q04DX002 (ip), vehicle: water",134 and 135 % of control
same,T/C,"dose: 40.0 mg/kg/injection, schedule: Q01DX001 (iv), vehicle: saline",128 % of control
same,survivor count,"dose: 40.0 mg/kg/injection, schedule: Q01DX005 (ip), vehicle: saline",7 of 8
same,survivor count,"dose: 40.0 mg/kg/injection, schedule: Q01DX005 (iv), vehicle: saline",3 of 8
same,survivor count,"dose: 40.0 mg/kg/injection, schedule: Q01DX009 (ip), vehicle: acid diluted with saline",6 of 6
same,survivor count,"dose: 40.0 mg/kg/injection, schedule: Q01DX009 (ip), vehicle: distilled water + Tween-80",4 of 6
same,survivor count,"dose: 40.0 mg/kg/injection, schedule: Q04DX003 (iv), vehicle: saline",8 of 8
same,T/C,"dose: 50.0 mg/kg/injection, schedule: Q04DX002 (ip), vehicle: water",136 and 138 % of control
same,survivor count,"dose: 54.0 mg/kg/injection, schedule: Q04DX003 (ip), vehicle: saline",6 of 8
same,survivor count,"dose: 80.0 mg/kg/injection, schedule: Q01DX001 (iv), vehicle: saline",0 of 8
same,survivor count,"dose: 80.0 mg/kg/injection, schedule: Q01DX009 (ip), vehicle: distilled water + Tween-80",0 of 6
same,survivor count,"dose: 80.0 mg/kg/injection, schedule: Q04DX003 (ip), vehicle: saline",3 of 8
same,survivor count,"dose: 80.0 mg/kg/injection, schedule: Q04DX003 (iv), vehicle: saline",0 of 8
same,survivor count,"dose: 90.0 mg/kg/injection, schedule: Q04DX003 (ip), vehicle: saline",6 of 8
same,survivor count,"dose: 100.0 mg/kg/injection, schedule: Q04DX002 (ip), vehicle: other",5 of 6
same,survivor count,"dose: 100.0 mg/kg/injection, schedule: Q04DX002 (ip), vehicle: water",5 of 6
same,survivor count,"dose: 150.0 mg/kg/injection, schedule: Q04DX003 (ip), vehicle: saline",2 of 8
same,survivor count,"dose: 160.0 mg/kg/injection, schedule: Q01DX001 (ip), vehicle: saline",1 of 8
same,survivor count,"dose: 160.0 mg/kg/injection, schedule: Q01DX009 (ip), vehicle: distilled water + Tween-80",0 of 6
same,survivor count,"dose: 200.0 mg/kg/injection, schedule: Q04DX002 (ip), vehicle: other",0 of 6
same,survivor count,"dose: 200.0 mg/kg/injection, schedule: Q04DX002 (ip), vehicle: water",0 of 6
NC(=O)Cc1noc2ccccc12,T/C,"dose: 50.0 mg/kg/injection, schedule: Q01DX009 (ip), vehicle: saline with Tween-80","97, 116, 120 % of control (2×)"
same,T/C,"dose: 100.0 mg/kg/injection, schedule: Q01DX009 (ip), vehicle: saline with Tween-80","88, 100, 110, 115 % of control"
same,T/C,[1],"94, 99, 106 [5 of 6 alive], 125 % of control"
CC(C)C1=C(O)C2=C(C(=O)C1=O)C1(C)CCCC(C)(C)C1C(O)C2OC=O (stereo not drawn),survivor count,[2],0 of 6
O=C1c2ccccc2C(=O)N1CCCN1CCOCCOCCN(CCCN2C(=O)c3ccccc3C2=O)CCOCC1,survivor count,"dose: 200.0 mg/kg/injection, schedule: Q01DX005 (ip), vehicle: saline + Tween-80 + alcohol",0 of 6
CC(C)(C)[NH2+][B-](F)(F)F,survivor count,[3],0 of 6
same,survivor count,[4],0 of 6
same,survivor count,[5],0 of 6
same,survivor count,[6],0 of 6
ClCSc1ccccc1C1=NCCCN1,survivor count,"dose: 6.25 mg/kg/injection, schedule: Q01DX005 (ip), vehicle: saline",0 of 6
same,survivor count,[7],0 of 6
same,survivor count,[3],0 of 6
same,survivor count,[4],0 of 6
same,survivor count,[5],0 of 6
same,survivor count,[6],0 of 6
COC(=O)CN1C(=O)c2cccc3cc(N)cc(c23)C1=O,survivor count,"dose: 50.0 mg/kg/injection, schedule: Q01DX005 (ip), vehicle: saline with Tween-80",6 of 6
same,survivor count,"dose: 200.0 mg/kg/injection, schedule: Q01DX005 (ip), vehicle: saline with Tween-80",6 of 6
CNNS(=O)(=O)CC(O)C(Cl)(Cl)Cl (stereo not drawn),survivor count,"dose: 200.0 mg/kg/injection, schedule: Q01DX009 (ip), vehicle: saline",0 of 6
NC(=S)N/N=C/c1ncccc1O,T/C,[7],134 % of control
same,T/C,"dose: 12.5 mg/kg/injection, schedule: Q01DX009 (ip), vehicle: saline",135 [4 of 6 alive] and 137 % of control
same,T/C,[3],144 % of control
same,T/C,"dose: 25.0 mg/kg/injection, schedule: Q01DX005 (ip), vehicle: suspension in saline",148 % of control
same,T/C,"dose: 25.0 mg/kg/injection, schedule: Q01DX009 (ip), vehicle: saline",128 % of control [4 of 6 alive]
same,T/C,"dose: 50.0 mg/kg/injection, schedule: Q01DX005 (ip), vehicle: suspension in saline",145 % of control
same,survivor count,"dose: 100.0 mg/kg/injection, schedule: Q01DX009 (ip), vehicle: saline",4 of 6
same,survivor count,"dose: 400.0 mg/kg/injection, schedule: Q01DX005 (ip), vehicle: saline",5 of 6
CCCCCCCCCCCCCCCC[N+](C)(C)CC(=O)O,survivor count,"dose: 45.0 mg/kg/injection, schedule: Q01DX009 (ip), vehicle: saline with Tween-80",6 of 6
same,survivor count,"dose: 90.0 mg/kg/injection, schedule: Q01DX009 (ip), vehicle: saline with Tween-80",5 of 6
same,survivor count,"dose: 180.0 mg/kg/injection, schedule: Q01DX009 (ip), vehicle: saline with Tween-80",0 of 6
Cc1c2cnccc2c(C)c2c1c1ccccc1n2CCCCCCCCCCn1c2ccccc2c2c(C)c3cnccc3c(C)c21,survivor count,"dose: 200.0 mg/kg/injection, schedule: Q04DX002 (ip), vehicle: saline with Tween-80",6 of 6
CC1(C)N=C(N)N=C(N)N1c1ccc(CCCCc2ccc(Cl)cc2Cl)cc1,T/C,"dose: 4.0 mg/kg/injection, schedule: Q01DX009 (ip), vehicle: saline sonified",136 % of control
same,T/C,"dose: 6.0 mg/kg/injection, schedule: Q01DX009 (ip), vehicle: saline sonified",140 % of control
same,T/C,"dose: 6.25 mg/kg/injection, schedule: Q01DX009 (ip), vehicle: saline with Tween-80",127 % of control
same,T/C,"dose: 9.0 mg/kg/injection, schedule: Q01DX009 (ip), vehicle: saline sonified",140 % of control [5 of 6 alive]
CCCNCCC(O)c1cc(C(F)(F)F)nc2c(C(F)(F)F)cccc12 (stereo not drawn),survivor count,[1],0 of 6
O=C(c1ccccc1)C(NCc1ccccc1)(Nc1ccccn1)c1ccccc1 (stereo not drawn),survivor count,"dose: 120.0 mg/kg/injection, schedule: Q01DX005 (ip), vehicle: Klucel (hydroxypropylcellulose) (HPC)",6 of 6
C[C-]=O.C[C-]=O.[C-]#[O+].[C-]#[O+].[C-]#[O+].[C-]#[O+].[Re],survivor count,"dose: 50.0 mg/kg/injection, schedule: Q01DX005 (ip), vehicle: Klucel (hydroxypropylcellulose) (HPC)",0 of 5
same,survivor count,"dose: 100.0 mg/kg/injection, schedule: Q01DX005 (ip), vehicle: Klucel (hydroxypropylcellulose) (HPC)",2 of 5
same,survivor count,[2],0 of 5
